Assay [1] addresses T1, human AR (Homo sapiens, UniProt P10275).
T1 sequence (P10275 1-920) 1: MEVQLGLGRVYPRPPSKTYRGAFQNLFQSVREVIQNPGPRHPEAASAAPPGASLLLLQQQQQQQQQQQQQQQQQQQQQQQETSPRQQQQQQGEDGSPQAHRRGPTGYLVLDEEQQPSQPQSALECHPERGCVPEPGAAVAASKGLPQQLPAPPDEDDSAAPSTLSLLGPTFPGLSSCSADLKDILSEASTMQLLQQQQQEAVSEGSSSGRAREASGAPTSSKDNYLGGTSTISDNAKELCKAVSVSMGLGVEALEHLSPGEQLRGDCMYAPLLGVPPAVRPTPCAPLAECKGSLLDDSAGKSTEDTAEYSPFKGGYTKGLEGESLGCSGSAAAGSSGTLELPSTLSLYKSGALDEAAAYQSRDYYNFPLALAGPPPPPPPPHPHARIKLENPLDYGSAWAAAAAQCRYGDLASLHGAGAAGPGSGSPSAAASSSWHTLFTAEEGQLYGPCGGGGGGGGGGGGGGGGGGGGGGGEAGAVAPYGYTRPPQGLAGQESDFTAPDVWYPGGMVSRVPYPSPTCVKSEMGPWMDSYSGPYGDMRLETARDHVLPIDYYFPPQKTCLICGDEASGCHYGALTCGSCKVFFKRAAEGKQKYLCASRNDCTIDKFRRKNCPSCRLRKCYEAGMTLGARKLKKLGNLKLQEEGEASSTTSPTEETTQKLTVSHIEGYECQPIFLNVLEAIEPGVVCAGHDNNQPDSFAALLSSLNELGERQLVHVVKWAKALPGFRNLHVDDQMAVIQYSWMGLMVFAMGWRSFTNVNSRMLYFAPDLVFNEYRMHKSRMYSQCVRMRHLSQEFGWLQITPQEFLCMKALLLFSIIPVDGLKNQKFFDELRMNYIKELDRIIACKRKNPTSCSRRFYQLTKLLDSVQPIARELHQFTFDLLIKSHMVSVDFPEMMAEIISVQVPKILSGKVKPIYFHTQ
T1 sequence (P10275 1-920) 2: T1 sequence (P10275 1-920) 1
The assay can be described thus: cell-based. As to conditions: hill_ga, antagonist mode, 10 nM agonist stimulus, 18 h, no CYP expressed. The arrangement: species or system AR2 cells (HepG2-AR2); NanoLuc complementation AR homodimerization, antagonist mode, loss of agonist-induced luminescence, AC50 by Hill fit.

Assay [2] addresses T1, human AR. The assay can be described thus: cell-based. The settings on record: hill_ga, spid=Bgal; agonist mode, 18 h, no CYP expressed. On the set-up: species or system AR2 cells (HepG2-AR2); NanoLuc complementation AR homodimerization, agonist mode, luminescence gain, AC50 by Hill fit.

Structures can show the parent of a compound that is named as a salt. A value given as a limit tells only on which side of the number the result lay.

Take `CCN(CC)CCOc1ccc(C(=C(Cl)c2ccccc2)c2ccccc2)cc1` [Clomiphene citrate]: the AC50 is 9.09 µM in assay [1] (spid=Bgal), 8.79 µM in assay [1] (spid=No_RNA) and greater than 99.9 µM in assay [2].

On to `CCN(CC)CCOc1ccc(/C(=C(/Cl)c2ccccc2)c2ccccc2)cc1` [Enclomiphene hydrochloride], for which the AC50 in assay [1] (spid=Bgal) was 7.61 µM; in assay [1] (spid=No_RNA), 6.29 µM.

One may read the AC50 as the concentration at which the activity in the assay is half-maximal. A low value points to greater potency.

The values above are taken from publication PMC10112521, “High-throughput AR dimerization assay identifies androgen disrupting chemicals and metabolites” (Frontiers in Toxicology, 2023).
